The text below walks through data of the supplement of paper PMC10403144.

Some of the results follow.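 Rule for the calls: active = mitochondrial OCR inhibition above 30% at 1 uM; inactive = 30% or less.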 Most values come without repeats; read them as rough.

This test relates to Toxoplasma gondii RH tachyzoites. In words: inhibition of mitochondrial O2 consumption rate (% inhibition (relative to pre-injection OCR and atovaquone/antimycin A control)); higher = stronger ETC inhibition. The conditions noted are these: 1 µM; injection port (sequential injection order): A.
Take `CCCn1nnc(NC(=O)COc2ccc(C3CCCCC3)cc2)n1`: the “inhibition of mitochondrial O2 consumption rate” value (“inhibition” for short) is inactive: -0.344. The same measure for `Cc1ccc(NC(=O)CC2COc3ccccc3O2)cc1Cl` (stereo unspecified): inactive: -7.29; for `Cc1nnc(NCc2cccc(Cl)c2)c2ccccc12`: inactive: -7.2. Under `Nc1ncnc2[nH]nc(Cc3cccc4ccccc34)c12` stands inactive: -9.22.

Turning to `Cc1ccc2nc(Cl)c(CNCc3cccs3)cc2c1`, the “inhibition” value is inactive: -2.86. Under `COc1cncc(-c2cncc(N3CCN(c4ccncc4)CC3)n2)c1` stands inactive: -8.75; under `C[C@H](C(N)=O)N1CCCC[C@H]1c1ccc(OCc2cccc(F)c2)cc1`, inactive: -12.8. The same measure for `O=C(Nc1nnc(-c2ccc(Cl)cc2)o1)c1cccc(C(F)(F)F)c1`: inactive: 2.3.

Turning to `CCCNC(=O)N1CCC2(CC1)CC(=O)c1cc(C)ccc1O2`, the “inhibition” value is inactive: -7.02. The same measure for `CN1CCC(NCc2cccc(-c3ccc(S(=O)(=O)NCc4ccccc4)cc3)c2)CC1`: inactive: -6.06. The same measure for `O=C(Nc1nc(-c2ccccn2)cs1)c1cncn1-c1ccccc1`: inactive: -3.98.
